{"sequences": {"note": "By UniProt entry, the sequences of proteins in these tests, tags left out. Residues count along the entry.", "UniProt P29323, residues 19-1055": "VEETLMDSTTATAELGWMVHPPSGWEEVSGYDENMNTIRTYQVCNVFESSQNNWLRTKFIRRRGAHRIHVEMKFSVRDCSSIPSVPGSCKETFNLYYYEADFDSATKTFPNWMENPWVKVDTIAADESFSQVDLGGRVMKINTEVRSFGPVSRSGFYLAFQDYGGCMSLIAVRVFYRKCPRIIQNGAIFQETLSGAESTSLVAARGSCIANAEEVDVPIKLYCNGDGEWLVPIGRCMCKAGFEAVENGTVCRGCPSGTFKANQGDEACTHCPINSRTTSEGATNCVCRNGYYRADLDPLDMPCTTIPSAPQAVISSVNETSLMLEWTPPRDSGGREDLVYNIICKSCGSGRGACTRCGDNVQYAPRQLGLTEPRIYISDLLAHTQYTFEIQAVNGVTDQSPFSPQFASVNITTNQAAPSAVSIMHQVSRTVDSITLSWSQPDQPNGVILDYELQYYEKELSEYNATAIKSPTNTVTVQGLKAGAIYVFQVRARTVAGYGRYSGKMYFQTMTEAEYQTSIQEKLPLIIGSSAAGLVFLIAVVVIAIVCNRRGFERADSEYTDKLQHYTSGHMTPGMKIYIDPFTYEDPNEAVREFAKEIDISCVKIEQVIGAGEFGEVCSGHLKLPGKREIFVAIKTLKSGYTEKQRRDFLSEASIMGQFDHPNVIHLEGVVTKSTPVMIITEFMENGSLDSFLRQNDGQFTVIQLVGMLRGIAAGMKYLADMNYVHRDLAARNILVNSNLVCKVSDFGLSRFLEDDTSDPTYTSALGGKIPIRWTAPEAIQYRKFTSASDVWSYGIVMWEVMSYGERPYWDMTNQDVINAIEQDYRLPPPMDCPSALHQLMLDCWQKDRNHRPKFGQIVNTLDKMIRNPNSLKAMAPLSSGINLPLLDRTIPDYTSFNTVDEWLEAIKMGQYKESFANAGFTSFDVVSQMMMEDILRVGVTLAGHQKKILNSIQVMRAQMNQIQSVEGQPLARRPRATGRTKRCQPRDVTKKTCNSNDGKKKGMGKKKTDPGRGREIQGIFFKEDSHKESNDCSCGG", "UniProt Q9H3S7": "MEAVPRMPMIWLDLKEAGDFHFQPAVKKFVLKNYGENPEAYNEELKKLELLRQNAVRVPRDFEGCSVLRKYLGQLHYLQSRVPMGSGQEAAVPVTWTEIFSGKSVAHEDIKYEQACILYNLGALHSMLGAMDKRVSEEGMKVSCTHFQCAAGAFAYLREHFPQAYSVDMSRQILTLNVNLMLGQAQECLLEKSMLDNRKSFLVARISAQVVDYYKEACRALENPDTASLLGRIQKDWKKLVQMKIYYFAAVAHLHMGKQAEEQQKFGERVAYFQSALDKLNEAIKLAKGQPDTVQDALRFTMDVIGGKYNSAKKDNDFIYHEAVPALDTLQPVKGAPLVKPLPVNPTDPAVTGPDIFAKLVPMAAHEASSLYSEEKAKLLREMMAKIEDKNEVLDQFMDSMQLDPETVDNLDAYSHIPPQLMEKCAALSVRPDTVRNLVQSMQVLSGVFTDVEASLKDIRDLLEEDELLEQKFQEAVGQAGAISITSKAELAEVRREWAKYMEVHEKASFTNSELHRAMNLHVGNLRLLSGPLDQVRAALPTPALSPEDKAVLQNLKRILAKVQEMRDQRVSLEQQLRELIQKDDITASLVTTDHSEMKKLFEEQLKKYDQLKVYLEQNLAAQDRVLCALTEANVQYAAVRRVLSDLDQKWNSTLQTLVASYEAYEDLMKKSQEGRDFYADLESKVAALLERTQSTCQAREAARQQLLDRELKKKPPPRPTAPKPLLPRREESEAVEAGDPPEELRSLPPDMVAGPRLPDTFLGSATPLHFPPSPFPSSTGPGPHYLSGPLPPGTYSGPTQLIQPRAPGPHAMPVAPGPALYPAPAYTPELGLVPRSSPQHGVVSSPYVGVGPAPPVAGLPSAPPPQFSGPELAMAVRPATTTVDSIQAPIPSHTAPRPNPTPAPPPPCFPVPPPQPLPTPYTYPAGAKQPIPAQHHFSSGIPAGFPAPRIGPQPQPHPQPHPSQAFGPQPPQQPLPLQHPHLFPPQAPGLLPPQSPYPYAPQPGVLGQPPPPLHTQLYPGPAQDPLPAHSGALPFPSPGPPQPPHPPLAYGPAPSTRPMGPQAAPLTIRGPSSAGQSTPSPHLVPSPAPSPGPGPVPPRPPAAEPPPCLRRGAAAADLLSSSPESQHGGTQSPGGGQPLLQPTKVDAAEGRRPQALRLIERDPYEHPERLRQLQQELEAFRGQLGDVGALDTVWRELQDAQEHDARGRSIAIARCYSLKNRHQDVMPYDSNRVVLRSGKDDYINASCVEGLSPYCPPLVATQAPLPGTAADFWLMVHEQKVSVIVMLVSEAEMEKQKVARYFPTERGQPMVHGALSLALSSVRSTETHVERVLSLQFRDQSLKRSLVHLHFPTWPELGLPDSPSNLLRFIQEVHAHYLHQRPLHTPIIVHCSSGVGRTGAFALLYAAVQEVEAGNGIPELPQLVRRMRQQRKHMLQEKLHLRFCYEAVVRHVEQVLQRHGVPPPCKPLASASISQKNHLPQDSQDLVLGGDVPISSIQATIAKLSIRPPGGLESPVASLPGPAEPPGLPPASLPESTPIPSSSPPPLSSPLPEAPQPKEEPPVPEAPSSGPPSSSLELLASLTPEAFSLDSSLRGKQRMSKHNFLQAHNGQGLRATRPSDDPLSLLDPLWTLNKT"}, "source": "paper doi:10.1101/386631", "biological_target": "EphB2-BirA*-FLAG (UniProt P29323)", "experiment": "co-IP", "note": "No constants are given. Whether binding was seen depends on the method and setting. Binding seen in cells or lysates may run through a third protein. Some entries that bind do so weakly or less than the wild type.", "data": [{"substance": "HD-PTP-HA (from UniProt Q9H3S7 1-1636)", "values": [{"measurement": "binding", "result": "binds"}]}]}
